PubChem BioAssay AID652259 | Drosophila RNAi Screening Center | 2013

Test: 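Identify new Wingless signalling regulators in fly cells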 (primary screen)
Cell system: Drosophila clone 8 imaginal disc epithelial cells
Reagents: long dsRNA against Drosophila genes
Conditions: pathway stimulated by co-transfected Wingless expression plasmid
Detection: 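Firefly luciferase from a tcf-site Wingless reporter, measured alongside co-transfected Renilla luciferase that tracks transfection; pathway stimulated by a Wingless plasmid; the firefly-to-Renilla ratio is not deposited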
Direction: firefly reporter light: higher = more Wg reporter light, before normalisation; Renilla control light: higher = more transfected or surviving cells
Active means: 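a knock-down is a candidate when at least two out of four statistical tests show it departing from its plate mean; one test alone signals a weak candidate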
Meaning of the calls: active = candidate regulator (raises or lowers reporter); inactive = not a candidate
The deposit covers about 22,000 reagents; shown is an unselected part of those that have a named target and a result. In the full data, 233 (1.1%) are marked active. 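Light values are raw, unnormalised plate reads; the ratio scores behind the reporter calls were not deposited.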 A plus sign joins genes that one reagent is predicted to hit. Reagent sequences are not shown. The record does not give: the amount of reagent, the time to read-out, the dose of the treatment.

| Target gene | amplicon | reporter change call, replicate 1 | firefly reporter light, replicate 1 | firefly reporter light, replicate 2 | Renilla control light, replicate 1 | Renilla control light, replicate 2 | activity call |
| --- | --- | --- | --- | --- | --- | --- | --- |
| CG1354 (GeneID 31914) | DRSC17902 | – | 18006 | – | 7913 | – | inactive |
| CG12012 (GeneID 38422) | DRSC08220 | – | 5264 | – | 2280 | – | inactive |
| Tsp26A (GeneID 33838) | DRSC03135 | – | 3008 | 8016 | 940 | 2362 | inactive |
| CG9992 (GeneID 32605) | DRSC20226 | – | 3016 | 7561 | 1213 | 2934 | inactive |
| CG9992 (GeneID 32605) | DRSC21643 | – | 2.84e5 | 3.21e5 | 1.52e5 | 1.33e5 | inactive |
| RpL35 (GeneID 31483) | DRSC18347 | – | 23445 | – | 9412 | – | inactive |
| bou (GeneID 31644) | DRSC17924 | – | 15600 | – | 7616 | – | inactive |
| CG14495 (GeneID 37056) | DRSC06466 | – | 5808 | – | 1747 | – | inactive |
| CG18480 (GeneID 34920) | DRSC01957 | – | 10924 | – | 3639 | – | inactive |
| kappaTry (GeneID 36215) | DRSC06146 | – | 3749 | – | 2021 | – | inactive |
| CR32745 (GeneID 5740857) | DRSC17442 | – | 2369 | – | 882 | – | inactive |
| CG14024 (GeneID 33760) | DRSC00868 | – | 26418 | – | 12613 | – | inactive |
| CG14024 (GeneID 33760) | DRSC02354 | – | 8936 | – | 4118 | – | inactive |
| ppk24 (GeneID 43702) | DRSC15093 | – | 7208 | – | 2664 | – | inactive |
| mute (GeneID 2768848) | DRSC06562 | Wg reporter activity raised | 12186 | – | 1081 | – | active |
| mute (GeneID 2768848) | DRSC22931 | – | 7.26e5 | 8.05e5 | 1.71e5 | 2.11e5 | inactive |
| RpL15 (GeneID 3354918) | DRSC20963 | – | 20064 | – | 8323 | – | inactive |
| CG18870 (GeneID 59218) | DRSC04313 | – | 2402 | 7539 | 696 | 2714 | inactive |
| CG6310 (GeneID 39237) | DRSC10619 | – | 7836 | – | 3078 | – | inactive |
| CG17778 (GeneID 30996) | DRSC18504 | – | 23747 | – | 9940 | – | inactive |
| DhpD (GeneID 40528) | DRSC12288 | – | 5931 | – | 2250 | – | inactive |
| ogre (GeneID 45382) | DRSC18809 | – | 2637 | 8995 | 865 | 2199 | inactive |
| Hcs (GeneID 40659) | DRSC12070 | – | 4848 | – | 1721 | – | inactive |
| Hcs (GeneID 40659) | DRSC12256 | – | 8648 | – | 2007 | – | inactive |
| CG42613 (GeneID 42269) | DRSC13332 | – | 3580 | – | 966 | – | inactive |
| CG42613 (GeneID 42269) | DRSC14769 | – | 10925 | – | 2544 | – | inactive |
| CG42613 (GeneID 42269) | DRSC15802 | – | 3156 | 10706 | 1120 | 2058 | inactive |
| CG42613 (GeneID 42269) | DRSC22613 | – | 6.66e5 | 6.37e5 | 2.19e5 | 1.45e5 | inactive |
| CG13841 (GeneID 50061) | DRSC14691 | – | 12269 | – | 10476 | – | inactive |
| Vha55 (GeneID 41550) | DRSC16896 | – | 12502 | – | 3581 | – | inactive |
| Ccp84Ac (GeneID 40823) | DRSC12588 | – | 15714 | – | 4610 | – | inactive |
| CG16721 (GeneID 31520) | DRSC18113 | – | 2432 | 9924 | 967 | 2928 | inactive |
| Ctr1B + Poxm | DRSC16245 | – | 12321 | – | 3383 | – | inactive |
| CG33233 (GeneID 2769005) | DRSC08239 | – | 4889 | – | 2597 | – | inactive |
| Eig71Ej (GeneID 39711) | DRSC11157 | – | 4535 | – | 2982 | – | inactive |
| CG31380 (GeneID 318701) | DRSC15688 | – | 17142 | – | 17508 | – | inactive |
| CheA75a (GeneID 40011) | DRSC10807 | – | 3612 | – | 1643 | – | inactive |
| CG1698 (GeneID 36006) | DRSC06640 | – | 8698 | – | 2909 | – | inactive |
| Uev1A (GeneID 38613) | DRSC09763 | – | 11562 | – | 3242 | – | inactive |
| CG30431 (GeneID 35549) | DRSC04902 | – | 13637 | – | 4057 | – | inactive |
| CG30431 (GeneID 35549) | DRSC04904 | – | 3785 | 8358 | 1064 | 2525 | inactive |
| Dscam1 (GeneID 35652) | DRSC05047 | – | 16169 | – | 8285 | – | inactive |
| Dscam1 (GeneID 35652) | DRSC05048 | – | 15693 | – | 8103 | – | inactive |
| Dscam1 (GeneID 35652) | DRSC07407 | – | 2272 | 6409 | 648 | 2283 | inactive |
| Dscam1 (GeneID 35652) | DRSC21562 | – | 5.05e5 | 4.99e5 | 1.50e5 | 1.46e5 | inactive |
| Dscam1 (GeneID 35652) | DRSC22383 | – | 9.00e5 | 8.24e5 | 4.41e5 | 4.03e5 | inactive |
| CG10996 (GeneID 32345) | DRSC19363 | – | 27048 | – | 16896 | – | inactive |
| C1GalTA (GeneID 34215) | DRSC03246 | – | 12198 | – | 4658 | – | inactive |
| CG3635 (GeneID 35447) | DRSC03729 | – | 2796 | 5989 | 1051 | 2386 | inactive |
| RalGPS (GeneID 36881) | DRSC06941 | – | 12246 | – | 3473 | – | inactive |
| Poc1 (GeneID 39502) | DRSC09713 | – | 2728 | – | 1445 | – | inactive |
| spz (GeneID 43256) | DRSC17065 | – | 2954 | 8022 | 1424 | 2028 | inactive |
| Cpr12A (GeneID 32309) | DRSC19722 | – | 22060 | – | 11264 | – | inactive |
| CG3085 (GeneID 37663) | DRSC04335 | – | 9760 | – | 2866 | – | inactive |

Active calls (from the list above):
| Target gene | amplicon | reporter change call, replicate 1 | firefly reporter light, replicate 1 | firefly reporter light, replicate 2 | Renilla control light, replicate 1 | Renilla control light, replicate 2 | activity call |
| --- | --- | --- | --- | --- | --- | --- | --- |
| mute (GeneID 2768848) | DRSC06562 | Wg reporter activity raised | 12186 | – | 1081 | – | active |

Continued:
| Target gene | amplicon | reporter change call, replicate 1 | firefly reporter light, replicate 1 | firefly reporter light, replicate 2 | Renilla control light, replicate 1 | Renilla control light, replicate 2 | activity call |
| --- | --- | --- | --- | --- | --- | --- | --- |
| nmd (GeneID 44021) | DRSC02856 | – | 6488 | – | 2296 | – | inactive |
| Sxl (GeneID 3772180) | DRSC18721 | – | 2882 | 9984 | 921 | 2480 | inactive |
| Sxl (GeneID 3772180) | DRSC18722 | – | 26053 | – | 14022 | – | inactive |
| Sxl (GeneID 3772180) | DRSC21490 | – | 4.33e5 | 4.81e5 | 1.90e5 | 1.88e5 | inactive |
| CAH14 (GeneID 37359) | DRSC04234 | – | 4389 | 10856 | 1488 | 4064 | inactive |
| CAH14 (GeneID 37359) | DRSC22160 | – | 4.70e5 | 4.39e5 | 1.78e5 | 2.16e5 | inactive |
| CG17270 (GeneID 42462) | DRSC15209 | – | 2986 | 8872 | 1225 | 2393 | inactive |
| Fpps (GeneID 36209) | DRSC07429 | – | 6887 | – | 2589 | – | inactive |
| Cyp313a5 (GeneID 41486) | DRSC16628 | – | 20432 | – | 5466 | – | inactive |
| CG3088 (GeneID 39115) | DRSC10352 | – | 3722 | – | 1872 | – | inactive |
| CG42663 (GeneID 36403) | DRSC06158 | – | 7248 | – | 1750 | – | inactive |
| CG42663 (GeneID 36403) | DRSC06404 | – | 7024 | – | 2503 | – | inactive |
| Pak3 (GeneID 41995) | DRSC15017 | – | 2455 | 2916 | 1148 | 1625 | inactive |
| Ptr (GeneID 35546) | DRSC04852 | – | 2993 | 8547 | 930 | 2520 | inactive |
| Ptr (GeneID 35546) | DRSC21517 | – | 4.17e5 | 4.33e5 | 1.80e5 | 1.40e5 | inactive |
| PIG-O (GeneID 37118) | DRSC06123 | – | 20455 | – | 5879 | – | inactive |
| pck (GeneID 31101) | DRSC18565 | – | 2436 | 9522 | 998 | 2267 | inactive |
| CG11178 (GeneID 32315) | DRSC19396 | – | 2851 | 7746 | 1020 | 2429 | inactive |
| Pop4 (GeneID 38889) | DRSC10955 | – | 1451 | 6505 | 1061 | 2473 | inactive |
| Obp19a (GeneID 33037) | DRSC20487 | – | 22928 | – | 9971 | – | inactive |
| FBXO11 (GeneID 41209) | DRSC16497 | – | 7437 | – | 2796 | – | inactive |
| Vha100-1 (GeneID 43442) | DRSC14148 | – | 2819 | 5456 | 711 | 1801 | inactive |
| Osi9 (GeneID 40763) | DRSC12278 | – | 4681 | – | 983 | – | inactive |
| CheB93a (GeneID 42540) | DRSC15044 | – | 38509 | – | 6560 | – | inactive |
| CG9393 (GeneID 41152) | DRSC16486 | – | 4328 | – | 1837 | – | inactive |
| NitFhit (GeneID 38029) | DRSC08680 | – | 6001 | – | 2592 | – | inactive |
| CG10912 (GeneID 37059) | DRSC06009 | – | 17600 | – | 4844 | – | inactive |
| CG32344 (GeneID 326208) | DRSC08578 | – | 14393 | – | 4568 | – | inactive |
| CG8312 (GeneID 41163) | DRSC16406 | – | 9334 | – | 2203 | – | inactive |
| CG34273 (GeneID 5740836) | DRSC13041 | – | 2872 | – | 583 | – | inactive |
| CG6220 (GeneID 36520) | DRSC06969 | Wg reporter activity raised | 5942 | – | 2582 | – | inactive |
| CG1889 + CG43386 | DRSC17979 | – | 33926 | – | 10624 | – | inactive |
| ubl (GeneID 35592) | DRSC04998 | – | 3771 | 5110 | 315 | 2058 | inactive |
| Cox11 (GeneID 33776) | DRSC22692 | – | 5.17e5 | 6.10e5 | 1.91e5 | 61359 | inactive |
| CG6830 (GeneID 41408) | DRSC16124 | – | 13495 | – | 2872 | – | inactive |
| CG17929 (GeneID 41978) | DRSC15291 | – | 14400 | – | 2923 | – | inactive |
| CG32071 (GeneID 39246) | DRSC22298 | – | 5.40e5 | 5.43e5 | 1.57e5 | 1.63e5 | inactive |
| SerT (GeneID 37895) | DRSC04655 | – | 3736 | 9125 | 617 | 1577 | inactive |
| cmet (GeneID 53561) | DRSC03511 | – | 2608 | 6891 | 1062 | 2688 | inactive |
